According to publication PMC7066847:
No constants are given. Whether binding was seen depends on the method and setting. Binding seen in cells or lysates may run through a third protein. Some results given as binding are weak or reduced against the parent protein; the word gives no strength.

Target: Fibronectin (human (endogenous in YTS-1)) (UniProt P02751)
Assay: co-IP; YTS-1/NEU1 cells (NEU1 overexpressed) lysed in modified RIPA buffer; anti-FN antibody on protein A/G Plus agarose overnight at 4 °C with gentle rotation; FN, β1 and NEU1 in the precipitate assayed by Western blotting

Question: For “Sialidase-1 (neuraminidase 1) (from UniProt Q99519 48-415) (enzyme)”, which binding is on record?
Answer: binds
